The other results are listed elsewhere or left out.
Key:
Assay in all cases: log2 fold change, soluble protein after heating vs DMSO (PISA); higher = thermal stabilisation; K562 cells, 10 uM, 30 min; active = over 0.2 and 3.5 SD of the protein, either way, in both replicates (recomputed)
[1] = compound: CC1=C(SC2=C1C(=N[C@H](C3=NN=C(N32)C)CC(=O)N)C4=CC=C(C=C4)Cl)C
Summary of the method: (§1)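 Quantification of soluble protein used TMTpro 16plex LC-MS/MS, with channel sums equalised. Samples were the supernatant after 21,000xg for 90 min of pooled aliquots from K562 cells (2×10^6 cells/mL) treated with 10 μM compound for 30 min, heated for 3 min over 48°C-58°C, and extracted in PBS with 0.5% NP-40 at 4°C. Values, from duplicates, describe thermal stability against control samples on a log2 fold-change scale.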

Amino acid sequences for entries named in this document (tags omitted). A change or cut given only in a name is not applied to a line headed by its entry.
UniProt Q8TDW0: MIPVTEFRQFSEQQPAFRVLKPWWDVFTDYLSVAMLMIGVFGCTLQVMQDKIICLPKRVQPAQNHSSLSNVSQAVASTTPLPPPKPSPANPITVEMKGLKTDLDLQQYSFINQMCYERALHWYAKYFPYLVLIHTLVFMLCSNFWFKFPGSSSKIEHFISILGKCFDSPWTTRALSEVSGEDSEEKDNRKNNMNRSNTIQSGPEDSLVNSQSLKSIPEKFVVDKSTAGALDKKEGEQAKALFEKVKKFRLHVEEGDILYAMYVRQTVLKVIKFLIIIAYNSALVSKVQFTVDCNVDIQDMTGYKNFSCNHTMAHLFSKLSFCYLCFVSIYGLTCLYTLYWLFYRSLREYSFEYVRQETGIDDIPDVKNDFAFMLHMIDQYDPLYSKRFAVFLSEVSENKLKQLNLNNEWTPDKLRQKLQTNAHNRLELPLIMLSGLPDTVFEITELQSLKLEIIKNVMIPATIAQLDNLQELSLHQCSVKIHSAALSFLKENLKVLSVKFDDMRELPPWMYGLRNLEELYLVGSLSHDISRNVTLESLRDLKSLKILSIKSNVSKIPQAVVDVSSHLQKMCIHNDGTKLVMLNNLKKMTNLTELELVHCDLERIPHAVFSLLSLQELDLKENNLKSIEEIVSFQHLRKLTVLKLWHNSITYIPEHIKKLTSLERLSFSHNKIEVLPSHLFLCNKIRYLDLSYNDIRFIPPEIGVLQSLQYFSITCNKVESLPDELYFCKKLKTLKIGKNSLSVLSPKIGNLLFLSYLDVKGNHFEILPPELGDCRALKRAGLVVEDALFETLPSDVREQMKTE
UniProt Q9H8J5: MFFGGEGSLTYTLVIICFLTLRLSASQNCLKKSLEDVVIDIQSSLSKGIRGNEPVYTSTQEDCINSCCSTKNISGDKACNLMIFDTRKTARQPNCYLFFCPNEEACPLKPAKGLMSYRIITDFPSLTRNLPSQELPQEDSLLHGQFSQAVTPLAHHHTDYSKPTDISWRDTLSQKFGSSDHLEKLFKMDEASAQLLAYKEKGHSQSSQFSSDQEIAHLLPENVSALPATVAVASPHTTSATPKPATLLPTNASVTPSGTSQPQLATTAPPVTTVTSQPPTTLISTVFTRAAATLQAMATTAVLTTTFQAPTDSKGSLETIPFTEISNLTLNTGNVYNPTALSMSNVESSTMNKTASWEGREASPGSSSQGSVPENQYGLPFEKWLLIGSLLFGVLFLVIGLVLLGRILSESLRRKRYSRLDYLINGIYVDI
UniProt Q99759: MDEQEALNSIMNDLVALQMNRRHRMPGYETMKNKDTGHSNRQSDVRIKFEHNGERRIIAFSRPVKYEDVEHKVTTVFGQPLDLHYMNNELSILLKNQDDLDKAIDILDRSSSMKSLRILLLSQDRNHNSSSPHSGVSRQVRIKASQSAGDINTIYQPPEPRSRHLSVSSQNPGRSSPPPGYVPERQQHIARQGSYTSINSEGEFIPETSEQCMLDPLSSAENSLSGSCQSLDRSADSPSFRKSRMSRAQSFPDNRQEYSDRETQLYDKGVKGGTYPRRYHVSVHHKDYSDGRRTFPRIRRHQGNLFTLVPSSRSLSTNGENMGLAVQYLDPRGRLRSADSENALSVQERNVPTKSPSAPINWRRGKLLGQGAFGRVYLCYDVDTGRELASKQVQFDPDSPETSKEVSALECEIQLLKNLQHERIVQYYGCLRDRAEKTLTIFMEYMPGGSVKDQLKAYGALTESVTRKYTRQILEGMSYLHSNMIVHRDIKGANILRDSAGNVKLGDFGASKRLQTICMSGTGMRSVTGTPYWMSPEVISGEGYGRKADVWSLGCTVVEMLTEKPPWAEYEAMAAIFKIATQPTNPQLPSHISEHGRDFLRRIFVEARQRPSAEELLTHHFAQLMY
UniProt Q969L4: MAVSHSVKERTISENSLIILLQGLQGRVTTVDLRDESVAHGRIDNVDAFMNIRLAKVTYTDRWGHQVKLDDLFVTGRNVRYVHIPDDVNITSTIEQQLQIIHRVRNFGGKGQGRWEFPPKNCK
UniProt Q13163: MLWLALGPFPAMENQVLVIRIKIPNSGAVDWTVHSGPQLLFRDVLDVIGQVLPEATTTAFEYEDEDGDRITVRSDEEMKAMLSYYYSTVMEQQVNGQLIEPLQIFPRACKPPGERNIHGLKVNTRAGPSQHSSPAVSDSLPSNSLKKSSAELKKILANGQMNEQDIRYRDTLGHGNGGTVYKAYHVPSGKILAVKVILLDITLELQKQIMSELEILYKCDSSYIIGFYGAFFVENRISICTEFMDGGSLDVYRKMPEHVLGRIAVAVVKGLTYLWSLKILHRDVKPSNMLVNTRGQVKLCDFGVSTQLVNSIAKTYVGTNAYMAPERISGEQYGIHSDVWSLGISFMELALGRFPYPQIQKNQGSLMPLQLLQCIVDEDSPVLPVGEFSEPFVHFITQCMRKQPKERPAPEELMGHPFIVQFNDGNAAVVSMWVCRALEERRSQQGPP
UniProt P07948: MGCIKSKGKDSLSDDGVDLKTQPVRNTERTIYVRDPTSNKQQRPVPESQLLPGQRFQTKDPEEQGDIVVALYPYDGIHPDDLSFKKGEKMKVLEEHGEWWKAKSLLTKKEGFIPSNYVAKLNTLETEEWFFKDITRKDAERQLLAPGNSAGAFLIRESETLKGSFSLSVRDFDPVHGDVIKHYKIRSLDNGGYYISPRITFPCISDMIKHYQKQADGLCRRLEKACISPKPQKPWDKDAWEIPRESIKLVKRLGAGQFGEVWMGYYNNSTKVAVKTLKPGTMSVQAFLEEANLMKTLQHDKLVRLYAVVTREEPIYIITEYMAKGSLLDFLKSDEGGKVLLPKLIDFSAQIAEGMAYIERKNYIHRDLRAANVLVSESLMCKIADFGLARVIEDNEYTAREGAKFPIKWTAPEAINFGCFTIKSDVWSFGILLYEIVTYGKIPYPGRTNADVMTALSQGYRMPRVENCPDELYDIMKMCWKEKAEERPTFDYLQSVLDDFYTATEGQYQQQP
UniProt Q9C099: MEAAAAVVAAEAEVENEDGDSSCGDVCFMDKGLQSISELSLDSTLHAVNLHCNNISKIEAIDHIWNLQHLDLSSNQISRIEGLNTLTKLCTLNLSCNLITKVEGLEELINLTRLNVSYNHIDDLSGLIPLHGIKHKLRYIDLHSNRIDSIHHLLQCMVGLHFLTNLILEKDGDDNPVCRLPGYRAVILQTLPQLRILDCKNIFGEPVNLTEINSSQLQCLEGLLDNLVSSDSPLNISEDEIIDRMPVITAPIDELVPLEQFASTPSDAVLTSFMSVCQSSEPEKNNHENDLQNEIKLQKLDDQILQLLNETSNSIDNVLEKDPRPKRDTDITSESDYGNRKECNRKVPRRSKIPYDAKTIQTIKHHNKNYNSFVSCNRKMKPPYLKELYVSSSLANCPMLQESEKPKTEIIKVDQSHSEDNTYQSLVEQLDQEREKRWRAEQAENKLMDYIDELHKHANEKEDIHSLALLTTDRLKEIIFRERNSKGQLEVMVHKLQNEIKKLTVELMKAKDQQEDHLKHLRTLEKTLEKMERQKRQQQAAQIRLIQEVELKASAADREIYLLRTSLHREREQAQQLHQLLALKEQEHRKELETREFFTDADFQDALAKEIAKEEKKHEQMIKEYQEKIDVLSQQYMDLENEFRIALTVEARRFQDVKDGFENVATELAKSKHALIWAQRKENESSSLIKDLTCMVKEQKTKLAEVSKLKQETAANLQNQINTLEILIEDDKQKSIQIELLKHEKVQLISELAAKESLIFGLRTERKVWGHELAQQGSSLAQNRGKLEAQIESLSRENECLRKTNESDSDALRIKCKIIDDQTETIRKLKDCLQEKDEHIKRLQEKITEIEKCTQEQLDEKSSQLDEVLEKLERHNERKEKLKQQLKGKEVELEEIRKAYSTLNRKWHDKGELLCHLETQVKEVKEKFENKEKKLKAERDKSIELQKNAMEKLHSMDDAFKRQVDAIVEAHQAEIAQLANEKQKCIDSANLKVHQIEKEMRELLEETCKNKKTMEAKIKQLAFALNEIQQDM
UniProt O15525: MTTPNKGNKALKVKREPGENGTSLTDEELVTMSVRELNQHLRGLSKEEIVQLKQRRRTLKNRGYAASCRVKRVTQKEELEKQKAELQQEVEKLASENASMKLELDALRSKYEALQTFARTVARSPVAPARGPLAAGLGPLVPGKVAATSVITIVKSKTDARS
UniProt Q9UI95, whole entry, looked up: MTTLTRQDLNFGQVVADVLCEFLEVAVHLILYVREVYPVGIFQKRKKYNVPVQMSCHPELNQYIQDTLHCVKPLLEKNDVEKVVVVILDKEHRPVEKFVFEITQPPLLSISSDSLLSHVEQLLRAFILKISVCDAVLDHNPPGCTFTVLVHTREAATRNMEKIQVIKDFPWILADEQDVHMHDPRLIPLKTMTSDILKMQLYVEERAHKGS
UniProt P10636, whole entry, looked up: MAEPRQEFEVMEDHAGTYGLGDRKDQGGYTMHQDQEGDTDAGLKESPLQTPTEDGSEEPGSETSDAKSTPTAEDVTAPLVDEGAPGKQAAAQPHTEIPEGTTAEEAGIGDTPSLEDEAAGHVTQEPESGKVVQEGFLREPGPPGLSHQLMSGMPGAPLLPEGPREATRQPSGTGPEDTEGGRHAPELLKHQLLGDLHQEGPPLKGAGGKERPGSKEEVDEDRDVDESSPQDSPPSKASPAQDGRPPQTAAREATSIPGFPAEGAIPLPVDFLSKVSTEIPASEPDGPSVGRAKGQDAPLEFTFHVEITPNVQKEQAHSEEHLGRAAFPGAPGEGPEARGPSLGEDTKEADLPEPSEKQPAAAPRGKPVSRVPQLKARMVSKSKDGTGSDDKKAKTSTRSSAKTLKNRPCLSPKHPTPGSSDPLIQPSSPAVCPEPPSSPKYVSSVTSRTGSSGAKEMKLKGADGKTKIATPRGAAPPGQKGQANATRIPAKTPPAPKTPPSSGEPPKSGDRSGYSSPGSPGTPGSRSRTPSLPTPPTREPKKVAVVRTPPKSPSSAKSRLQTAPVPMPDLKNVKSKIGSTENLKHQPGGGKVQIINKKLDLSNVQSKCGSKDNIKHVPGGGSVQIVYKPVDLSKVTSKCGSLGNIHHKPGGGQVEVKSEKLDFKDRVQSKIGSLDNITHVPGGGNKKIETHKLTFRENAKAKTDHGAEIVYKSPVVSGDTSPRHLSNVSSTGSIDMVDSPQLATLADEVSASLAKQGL
UniProt Q96LZ2: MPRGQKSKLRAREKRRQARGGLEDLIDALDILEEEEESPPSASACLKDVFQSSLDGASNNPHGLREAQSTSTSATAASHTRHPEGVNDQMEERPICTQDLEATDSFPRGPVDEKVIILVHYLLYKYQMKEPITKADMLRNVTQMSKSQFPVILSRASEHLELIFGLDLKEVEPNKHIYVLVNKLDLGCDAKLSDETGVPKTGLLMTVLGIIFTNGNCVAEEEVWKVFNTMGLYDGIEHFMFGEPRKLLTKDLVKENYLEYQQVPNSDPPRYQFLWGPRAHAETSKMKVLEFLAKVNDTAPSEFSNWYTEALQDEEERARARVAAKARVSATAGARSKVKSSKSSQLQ
UniProt Q9ULX9: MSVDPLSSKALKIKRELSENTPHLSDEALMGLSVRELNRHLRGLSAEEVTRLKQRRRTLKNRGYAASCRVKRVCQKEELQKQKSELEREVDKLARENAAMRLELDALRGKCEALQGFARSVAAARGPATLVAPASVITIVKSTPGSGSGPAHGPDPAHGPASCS
UniProt Q02779: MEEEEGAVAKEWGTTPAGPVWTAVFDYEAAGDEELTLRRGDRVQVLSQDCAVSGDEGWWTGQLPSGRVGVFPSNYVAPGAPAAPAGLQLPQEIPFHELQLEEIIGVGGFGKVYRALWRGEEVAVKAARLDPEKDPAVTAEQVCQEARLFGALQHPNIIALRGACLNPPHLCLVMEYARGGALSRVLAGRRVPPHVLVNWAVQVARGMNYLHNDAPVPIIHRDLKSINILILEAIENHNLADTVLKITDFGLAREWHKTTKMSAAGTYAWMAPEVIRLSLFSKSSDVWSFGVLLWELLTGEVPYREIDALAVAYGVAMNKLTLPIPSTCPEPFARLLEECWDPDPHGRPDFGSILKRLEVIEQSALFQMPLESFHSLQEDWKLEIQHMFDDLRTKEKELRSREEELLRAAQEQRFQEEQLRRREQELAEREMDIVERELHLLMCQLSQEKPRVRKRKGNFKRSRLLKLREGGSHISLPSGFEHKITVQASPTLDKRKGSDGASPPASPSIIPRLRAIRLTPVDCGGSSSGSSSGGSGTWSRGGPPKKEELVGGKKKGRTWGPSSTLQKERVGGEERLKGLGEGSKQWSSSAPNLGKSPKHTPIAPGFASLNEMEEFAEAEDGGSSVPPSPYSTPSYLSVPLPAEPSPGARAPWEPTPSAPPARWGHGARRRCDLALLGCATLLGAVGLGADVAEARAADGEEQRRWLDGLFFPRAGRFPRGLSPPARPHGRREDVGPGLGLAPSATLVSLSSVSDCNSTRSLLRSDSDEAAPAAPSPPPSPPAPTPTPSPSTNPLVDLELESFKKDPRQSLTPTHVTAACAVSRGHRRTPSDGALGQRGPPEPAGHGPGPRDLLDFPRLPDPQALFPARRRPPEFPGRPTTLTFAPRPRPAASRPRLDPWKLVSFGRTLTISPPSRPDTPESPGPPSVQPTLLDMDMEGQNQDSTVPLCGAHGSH

[2] = compound: c1ccc([C@@H]2C[C@H]2NC2CCNCC2)cc1
Summary of the method: as §1

[3] = compound: Cc1sc2c(c1C)C(c1ccc(Cl)cc1)=N[C@@H](CC(=O)OC(C)(C)C)c1nnc(C)n1-2
Summary of the method: as §1

[4] = compound: CC1=C2C(=CC=C1)N=C(N(C2=O)C3=CC=CC=C3C)CN4C=NC5=C(N=CN=C54)N
Summary of the method: as §1

[5] = compound: C1=CC=C(C=C1)[C@H](COC2=CC3=C(C=C2)NC(=O)N3)NC(=O)C4=CC=CN(C4=O)CC5=CC(=C(C=C5)F)F
Summary of the method: as §1

Target	log2 fold change [1]	log2 fold change [2]	log2 fold change [3]	log2 fold change [4]	log2 fold change [5]
LRRC8C (UniProt Q8TDW0)	inactive: -0.024	inactive: 0.067			
MANSC1 (UniProt Q9H8J5)	inactive: 0	inactive: -0.036	inactive: 0.122		
MAP3K3 isoform 2 (UniProt Q99759)	inactive: 0.106	inactive: -0.023	inactive: 0.104	inactive: 0.048	
LRRC8D (UniProt Q7L1W4)	inactive: -0.21	inactive: -0.048	inactive: 0.213	inactive: -0.092	
MAP4K4 isoform 6 (UniProt O95819)	inactive: 0.177	inactive: 0.076	inactive: -0.037	inactive: 0.049	
LSM10 (UniProt Q969L4)			inactive: 0.034		inactive: -0.023
MAP4K3 (UniProt Q8IVH8)				inactive: 0.072	inactive: 0.459
MAP2K5 (UniProt Q13163)	inactive: 0.053	inactive: -0.034			
MAP3K20 isoform 2 (UniProt Q9NYL2)			inactive: -0.033		
LTBP4 (UniProt Q8N2S1)	inactive: 0.095	inactive: 0.113	inactive: -0.015		
LYN isoform 2 (UniProt P07948)	inactive: 0.018	inactive: 0.033		inactive: -0.097	
LRRCC1 (UniProt Q9C099)			inactive: 0.046		
MAPK11 (UniProt Q15759)			inactive: -0.014		
MAGED1 isoform 2 (UniProt Q9Y5V3)	inactive: 0.031	inactive: -0.01		inactive: 0.148	
MAGI3 isoform 1 (UniProt Q5TCQ9)			inactive: 0.029	inactive: 0.053	inactive: -0.007
LSR isoform 3 (UniProt Q86X29)	inactive: -0.073	inactive: -0.101	inactive: -0.067		

Target	log2 fold change [1]	log2 fold change [2]	log2 fold change [3]	log2 fold change [4]	log2 fold change [5]
MAFG (UniProt O15525)	inactive: -0.024	inactive: 0.003		inactive: -0.137	
MAD2L2 (UniProt Q9UI95)	inactive: 0.166	inactive: -0.003			
LRRFIP1 isoform 4 (UniProt Q32MZ4)	inactive: -0.204	inactive: 0.009			
LSR (UniProt M0QZL9)				inactive: 0.054	
MAPT isoform 9 (UniProt P10636)				inactive: 0.142	inactive: -0.036
MAPKAP1 (UniProt Q9BPZ7)			inactive: -0.504		
MAGEB10 (UniProt Q96LZ2)	inactive: -0.195	inactive: -0.025	inactive: 0.268	inactive: -0.211	
LYST (UniProt Q99698)				inactive: 0.417	inactive: 0.003
MAN2B2 (UniProt Q9Y2E5)			inactive: 0.074	inactive: 0.096	inactive: 0.097
MAPRE3 isoform 2 (UniProt Q9UPY8)	inactive: 0.033	inactive: 0.017	inactive: 0.279		
MAFF (UniProt Q9ULX9)				inactive: 0.023	inactive: 0.06
LSG1 (UniProt Q9H089)	inactive: -0.093	inactive: -0.012	inactive: 0.136	inactive: 0.013	
MAML1 (UniProt Q92585)	inactive: 0.018	inactive: 0.077		inactive: 0.15	
LSM11 (UniProt P83369)	inactive: -0.094	inactive: 0.012			
MAP3K10 (UniProt Q02779)			inactive: -0.182	inactive: 0.111	inactive: -0.021
LSM14A, A0A140TA76			inactive: -0.113	inactive: 0.023	

Full records from above:
MAML1 (UniProt Q92585) reads log2 fold change [1]: inactive: 0.018; log2 fold change [2]: inactive: 0.077; log2 fold change [4]: inactive: 0.15
MAGEB10 (UniProt Q96LZ2) reads log2 fold change [1]: inactive: -0.195; log2 fold change [2]: inactive: -0.025; log2 fold change [3]: inactive: 0.268; log2 fold change [4]: inactive: -0.211
